Test results as given in patent US20100028406A1, “TOPICAL DRUG DELIVERY BY IONTOPHORESIS” (UNIVERSITE DE GENEVE, priority 2005, published 2010).

Assay: Iontophoresis across porcine skin in vitro, 3-compartment cells, acetaminophen as electroosmosis marker
Settings: for effect on basal acetaminophen transport (EO marker): 2 mM donor, absence of competing Na+ ions
Experimental: Porcine ear skin, which is a well-accepted model for human skin (Dick and Scott, 1992; Sekkat et al., 2002), was used in these studies. Porcine ears were obtained from a local abattoir (Société d'Exploitation d'Abbatage, Annecy, France) a few hours after the sacrifice of the animals. The excised skin was then dermatomed (˜750 μm) on the same day and stored at −20° C. for a maximum of two months.
Iontophoresis was performed using vertical 3-compartment cells (FIG. 2). The skin was placed between two half-cells: the upper half, in contact with the SC, comprised two electrode/donor compartments, while the lower receiver compartment was in contact with the dermis. A flow-through system circulated phosphate-buffered normal saline (PBS: 16.8 mM Na2HPO4, 1.4 mM KH2PO4 and 136.9 mM NaCl; pH 7.4) through the receiver chamber (volume 4.7 mL) at a rate of 3 mL/h. Ag/AgCl electrodes were used throughout the study. The skin was allowed to equilibrate for one hour prior to the iontophoresis experiment. In order to reduce competition from Na^+ ions present in the donor, and thus to increase the permeation of VCV, most experiments were performed using a salt bridge assembly. This strategy consists of physically separating the anodal chamber (Ag electrode immersed in PBS pH 7.4) from the donor compartment (drug solution in contact with the SC) and employing a salt bridge (prepared by filling a 12 cm tubing with a warm aqueous solution of 3% agarose and 0.1 M NaCl and then allowed to cool) to electrically connect the two chambers. […] For control experiments without the salt bridge, the anodal compartment contained 1 mL of 10 mM VCV.HCl in PBS pH 7.4. The cathodal compartment contained PBS pH 7.4 in all the experiments. A constant current of 0.34 mA was applied for 7 hours (equivalent to a current density of 0.5 mA/cm^2). […]
The experiments were performed in sextuplicate, except for passive delivery (n=3), using the skin of as many different animals as possible. Samples were collected hourly and analyzed by high pressure liquid chromatography (HPLC). […]

## CC(C)[C@H](N)C(=O)OCCOCn1cnc2c(=O)[nH]c(N)nc21 [VCV, valaciclovir]
  effect on basal acetaminophen transport (EO marker): unaffected
VCV donor concentration increased from 2 to 10 mM
  effect on acetaminophen transport (EO marker): decreased significantly

## Nc1nc2c(ncn2COCCO)c(=O)[nH]1 [ACV, acyclovir]
  effect on basal acetaminophen transport (EO marker): unaffected
